The test concerns P388 leukemia ip, CD2F1 mice, survival T/C. As to the kind of experiment: NCI In Vivo Anticancer Drug Screen. Data for tumor model P388 Leukemia (intraperitoneal) in CD2F1 (CDF1) mice. Particulars: T/C endpoint: median survival time, higher T/C = longer survival.
Where [1] appears, read: dose: 100.0 mg/kg/injection, schedule: Q01DX009 (ip), vehicle: saline.
Where [2] appears, read: dose: 200.0 mg/kg/injection, schedule: Q01DX009 (ip), vehicle: saline.
Where [3] appears, read: dose: 50.0 mg/kg/injection, schedule: Q01DX005 (ip), vehicle: Klucel (hydroxypropylcellulose) (HPC).
Where [4] appears, read: dose: 200.0 mg/kg/injection, schedule: Q01DX005 (ip), vehicle: Klucel (hydroxypropylcellulose) (HPC).
[5] abbreviates: dose: 25.0 mg/kg/injection, schedule: Q01DX009 (ip), vehicle: Klucel (hydroxypropylcellulose) (HPC).
Where [6] appears, read: dose: 200.0 mg/kg/injection, schedule: Q01DX009 (ip), vehicle: Klucel (hydroxypropylcellulose) (HPC).
Setting [7] is: dose: 25.0 mg/kg/injection, schedule: Q01DX009 (ip), vehicle: saline.
Setting [8] is: dose: 50.0 mg/kg/injection, schedule: Q01DX009 (ip), vehicle: saline.
Setting [9] is: dose: 240.0 mg/kg/injection, schedule: Q01DX005 (ip), vehicle: Klucel (hydroxypropylcellulose) (HPC).
The mark [10] stands for this setting: dose: 100.0 mg/kg/injection, schedule: Q01DX005 (ip), vehicle: Klucel (hydroxypropylcellulose) (HPC).

SMILES strings stand for the structures. The list shows only some results of the screen, not a fair sample: it gathers tests that were run many times, whatever their T/C, doses with no T/C, and many T/C values between a quarter and a half above the control. Other doses and runs of a compound stand elsewhere. T/C is the treated group as % of the vehicle group. Some doses have a count of surviving animals in place of a T/C: the source holds a T/C of zero for them, seemingly a mark for toxic or unscored doses. Some survivor counts are full or nearly so, which does not show that the dose was tolerated: survival well below the control is almost never listed, so the zero probably covers shortened survival too. Survivors were counted at the toxicity check, usually on the fifth day, unless a day is given; later deaths do not show. Schedule codes are those of the source, taken here to give the interval after Q, in days (D) or hours (H), and the number of doses after X. Some entries hold several experiments; the results are listed from low to high. Where survival is the endpoint, the PubChem record calls one and a half times the control and up active, and a quarter to a half above the control has no call in these data; cut-offs in other NCI protocols can differ.

Consider `O=c1[nH]c(O)c(N=Nc2ccc([N+](=O)[O-])cc2[N+](=O)[O-])c(=O)[nH]1`, for which, under “dose: 100.0 mg/kg/injection, schedule: Q01DX009 (ip), vehicle: saline with Tween-80”, the T/C was 125 % of control.
Turning to `O=C1N=C2OC3(CCCCC3)OC(=O)N2C2(CCCCC2)O1`, where the note is “dose: 400.0 mg/kg/injection, schedule: Q01DX009 (ip), vehicle: distilled water + Tween-80”, the survivor count was 0 of 6.
`O=C(CC1NCCCC1O)Cn1cnc2ccccc2c1=O` (configuration not stated): the survivor count (dose: 8.0 mg/kg/injection, schedule: Q01DX009 (ip), vehicle: distilled water + alcohol) was 1 of 6.
In the case of `CN=C(N)N/N=C(\C)c1ccc2c(c1)Cc1cc(Cl)ccc1-2`, the T/C reads like this: (dose: 25.0 mg/kg/injection, schedule: Q04DX002 (ip), vehicle: saline with Tween-80) 126 % of control; (dose: 50.0 mg/kg/injection, schedule: Q04DX002 (ip), vehicle: saline with Tween-80) 130 % of control. Under “dose: 100.0 mg/kg/injection, schedule: Q04DX002 (ip), vehicle: saline with Tween-80”, the survivor count is 1 of 6 and 5 of 6.
Take `CCN(CC)Cc1cc(C(=O)CC(c2ccccc2)S(=O)(=O)c2ccc(C)cc2)ccc1O` (configuration not stated): the survivor count (dose: 12.5 mg/kg/injection, schedule: Q01DX009 (ip), vehicle: saline with Tween-80) is 6 of 6; the survivor count (dose: 25.0 mg/kg/injection, schedule: Q01DX009 (ip), vehicle: saline with Tween-80) is given as 5 of 6; the survivor count (dose: 50.0 mg/kg/injection, schedule: Q01DX009 (ip), vehicle: saline with Tween-80) was 6 of 6; the survivor count under setting [1] was 3 of 6; the survivor count under setting [2] is given as 3 of 6.
Take `CN1C2C=C(c3ccc(C(F)(F)F)cc3)CC1CC2` (configuration not stated): the survivor count by setting is: under setting [3], 3 of 6; under setting [4], 0 of 6; (dose: 200.0 mg/kg/injection, schedule: Q01DX005 (ip), vehicle: saline) 1 of 6.
For `OC1c2ccccc2-c2ccccc2C1O` (configuration not stated), the survivor count is, setting by setting: (dose: 400.0 mg/kg/injection, schedule: Q04DX002 (ip), vehicle: saline with Tween-80) 2 of 6; (dose: 800.0 mg/kg/injection, schedule: Q04DX002 (ip), vehicle: saline with Tween-80) 1 of 6 and 2 of 5.
Take `C/C(=N\NC(N)=S)c1ccccc1`: the T/C (dose: 12.5 mg/kg/injection, schedule: Q01DX009 (ip), vehicle: Klucel (hydroxypropylcellulose) (HPC)) was 128 % of control. In addition, the survivor count runs as follows: under setting [5], 2 of 6 and 3 of 6; (dose: 50.0 mg/kg/injection, schedule: Q01DX009 (ip), vehicle: Klucel (hydroxypropylcellulose) (HPC)) 0 of 6; (dose: 100.0 mg/kg/injection, schedule: Q01DX009 (ip), vehicle: Klucel (hydroxypropylcellulose) (HPC)) 0 of 6; under setting [6], 0 of 6; (dose: 400.0 mg/kg/injection, schedule: Q01DX009 (ip), vehicle: Klucel (hydroxypropylcellulose) (HPC)) 0 of 6.
Consider `O=C(O)CCCCCCC(=O)CCl`, for which, for the setting “dose: 200.0 mg/kg/injection, schedule: Q04DX003 (ip), vehicle: saline”, the survivor count is recorded as 5 of 6. In addition, the T/C (dose: 200.0 mg/kg/injection, schedule: Q04DX003 (ip), vehicle: suspension in saline) was 128 % of control.
Turning to `NCC=C1C2CC3CC(C2)CC1C3`, the survivor count runs as follows: under setting [7], 6 of 6; under setting [8], 6 of 6; under setting [1], 2 of 6; under setting [2], 0 of 6.
As for `Cc1nc(N)[nH]c(=O)c1CCCCC#N`, the survivor count under setting [9] is listed as 2 of 6.
On the same count and under the same terms, under `CCn1c(C)nc2c(N)cc(C(F)(F)F)cc21` (tested in a mixture with another compound) stands 0 of 6.
Regarding `ClC(Cl)(Cl)C1[O][Sb]([c]2ccccc2)([c]2ccccc2)([c]2ccccc2)[O]1` (configuration not stated), the survivor count under setting [6] was 0 of 6.
As to `O=S1(=O)OCCCO1`, the survivor count (dose: 100.0 mg/kg/injection, schedule: Q01DX005 (ip), vehicle: saline) is listed as 0 of 6.
On to `CC(C)(C)OC(=O)CNC(=O)C(Cc1ccccc1)NC(=O)C(CSC(c1ccccc1)(c1ccccc1)c1ccccc1)NC(=O)CNC(=O)C(Cc1ccccc1)NC(=O)CNC(=O)C(CSC(c1ccccc1)c1ccccc1)NC(=O)C(CSC(c1ccccc1)(c1ccccc1)c1ccccc1)NC(=O)OCc1ccccc1` (configuration not stated), for which the survivor count under setting [9] is 6 of 6.
As to `CN(C)Cc1cccc(CN(C)C)[c]1[Sn]([Br])([c]1ccccc1)[c]1ccccc1`, the T/C (dose: 6.25 mg/kg/injection, schedule: Q01DX009 (ip), vehicle: saline) was 129 and 134 % of control; the T/C (dose: 12.5 mg/kg/injection, schedule: Q01DX009 (ip), vehicle: saline) is 129 % of control. Further, the survivor count by setting is: under setting [7], 0 of 6; under setting [8], 0 of 6; under setting [1], 0 of 6; under setting [2], 0 of 6.
Take `CCCCCCCCCCCCCCOCCS(=O)(=O)O`: the survivor count (dose: 120.0 mg/kg/injection, schedule: Q01DX005 (ip), vehicle: saline with Tween-80) is 6 of 6.
For the molecule `O=C1CSC(=O)N1c1ccc(Cl)c(Cl)c1`, the survivor count (dose: 200.0 mg/kg/injection, schedule: Q01DX009 (ip), vehicle: saline with Tween-80) is listed as 5 of 6.
Consider `CC1=C2CCCCCC2(O)OC1=O` (configuration not stated), for which the survivor count by setting is: (dose: 100.0 mg/kg/injection, schedule: Q01DX001 (ip), vehicle: saline) 6 of 6; (dose: 200.0 mg/kg/injection, schedule: Q01DX001 (ip), vehicle: saline) 2 of 6; (dose: 400.0 mg/kg/injection, schedule: Q01DX001 (ip), vehicle: saline) 0 of 6.
Regarding `O=CC(CO)C(C=O)n1ncc2ccccc21` (configuration not stated), the T/C was 125 % of control (dose: 8.0 mg/kg/injection, schedule: Q01DX009 (ip), vehicle: saline with Tween-80); 127 % of control (dose: 32.0 mg/kg/injection, schedule: Q01DX009 (ip), vehicle: saline with Tween-80); 126 % of control (dose: 64.0 mg/kg/injection, schedule: Q01DX001 (ip), vehicle: saline). The survivor count (dose: 64.0 mg/kg/injection, schedule: Q01DX009 (ip), vehicle: saline with Tween-80) was 0 of 6; the survivor count (dose: 128.0 mg/kg/injection, schedule: Q01DX001 (ip), vehicle: suspension in saline) is 2 of 6; the survivor count (dose: 128.0 mg/kg/injection, schedule: Q01DX009 (ip), vehicle: saline with Tween-80) is on record as 0 of 6.
For the molecule `C/C=C/C=C(/C=O)[C@@H](O)C(C)=O`, the T/C was 134 % of control (dose: 4.0 mg/kg/injection, schedule: Q01DX009 (ip), vehicle: saline + alcohol) and 131 % of control (dose: 8.0 mg/kg/injection, schedule: Q01DX009 (ip), vehicle: saline + alcohol). Moreover, the survivor count is 0 of 6 (dose: 16.0 mg/kg/injection, schedule: Q01DX009 (ip), vehicle: saline + alcohol) and 0 of 6 (dose: 32.0 mg/kg/injection, schedule: Q01DX009 (ip), vehicle: saline + alcohol).
As to `C/C=C1\CN2CCC34c5ccccc5N5C(C6C7CC8N(CCC89c8ccccc8N(C(C)=O)C69)C/C7=C\C)OCC(C1CC23)C54` (configuration not stated), the survivor count (dose: 96.5 mg/kg/injection, schedule: Q01DX009 (ip), vehicle: saline with Tween-80) is listed as 1 of 6.
Take `NS(=O)(=O)c1ccc(N=Nc2nc3[nH]c(=O)[nH]c(=O)c3[nH]2)cc1`: the survivor count is, setting by setting: under setting [3], 0 of 6; under setting [10], 0 of 6; under setting [4], 0 of 6.
For the molecule `CCOC(=O)C(C)(NC(=O)c1ccccc1)C(=O)OCC`, under “dose: 120.0 mg/kg/injection, schedule: Q01DX005 (ip), vehicle: saline”, the survivor count was 6 of 6.
Take `CCCCCCOC(=O)C(O)c1ccccc1` (configuration not stated): the survivor count (dose: 400.0 mg/kg/injection, schedule: Q01DX009 (ip), vehicle: saline with Tween-80) is given as 5 of 6.
For `CC1=NNC(=O)C1(Br)Br`, the survivor count under setting [5] is 3 of 6.
On to `c1ccc(Cn2nnnc2Nc2ccccc2)cc1`, for which the survivor count under setting [10] is listed as 3 of 5.
